# Assay results as given in PMC11191317, “PNSC928, a plant-derived compound, specifically disrupts CtBP2-p300 interaction and reduces inflammation in mice with acute respiratory distress syndrome” (Biology Direct, 2024).
# Amino acid sequences for entries named in this document (tags omitted). A change or cut given only in a name is not applied to a line headed by its entry. Residues count along the entry.
# UniProt P56546: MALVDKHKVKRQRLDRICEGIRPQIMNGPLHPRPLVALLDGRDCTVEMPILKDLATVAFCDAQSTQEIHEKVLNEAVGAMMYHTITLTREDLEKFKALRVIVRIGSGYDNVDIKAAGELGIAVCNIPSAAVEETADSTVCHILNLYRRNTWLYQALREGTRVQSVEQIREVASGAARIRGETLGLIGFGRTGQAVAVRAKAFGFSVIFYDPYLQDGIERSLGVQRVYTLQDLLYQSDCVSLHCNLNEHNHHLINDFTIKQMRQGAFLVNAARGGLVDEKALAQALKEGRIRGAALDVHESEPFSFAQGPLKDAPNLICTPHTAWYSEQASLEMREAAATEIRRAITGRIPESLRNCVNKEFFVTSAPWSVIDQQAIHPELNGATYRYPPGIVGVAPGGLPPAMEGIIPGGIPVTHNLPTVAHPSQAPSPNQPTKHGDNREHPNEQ
# UniProt B2RWS6, residues 1001-1201: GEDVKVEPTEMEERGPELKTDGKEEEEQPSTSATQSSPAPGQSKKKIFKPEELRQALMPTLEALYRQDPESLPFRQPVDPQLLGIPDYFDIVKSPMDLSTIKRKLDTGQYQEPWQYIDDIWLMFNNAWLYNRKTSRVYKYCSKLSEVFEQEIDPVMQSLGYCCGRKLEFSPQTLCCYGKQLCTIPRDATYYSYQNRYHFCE
# UniProt P25799: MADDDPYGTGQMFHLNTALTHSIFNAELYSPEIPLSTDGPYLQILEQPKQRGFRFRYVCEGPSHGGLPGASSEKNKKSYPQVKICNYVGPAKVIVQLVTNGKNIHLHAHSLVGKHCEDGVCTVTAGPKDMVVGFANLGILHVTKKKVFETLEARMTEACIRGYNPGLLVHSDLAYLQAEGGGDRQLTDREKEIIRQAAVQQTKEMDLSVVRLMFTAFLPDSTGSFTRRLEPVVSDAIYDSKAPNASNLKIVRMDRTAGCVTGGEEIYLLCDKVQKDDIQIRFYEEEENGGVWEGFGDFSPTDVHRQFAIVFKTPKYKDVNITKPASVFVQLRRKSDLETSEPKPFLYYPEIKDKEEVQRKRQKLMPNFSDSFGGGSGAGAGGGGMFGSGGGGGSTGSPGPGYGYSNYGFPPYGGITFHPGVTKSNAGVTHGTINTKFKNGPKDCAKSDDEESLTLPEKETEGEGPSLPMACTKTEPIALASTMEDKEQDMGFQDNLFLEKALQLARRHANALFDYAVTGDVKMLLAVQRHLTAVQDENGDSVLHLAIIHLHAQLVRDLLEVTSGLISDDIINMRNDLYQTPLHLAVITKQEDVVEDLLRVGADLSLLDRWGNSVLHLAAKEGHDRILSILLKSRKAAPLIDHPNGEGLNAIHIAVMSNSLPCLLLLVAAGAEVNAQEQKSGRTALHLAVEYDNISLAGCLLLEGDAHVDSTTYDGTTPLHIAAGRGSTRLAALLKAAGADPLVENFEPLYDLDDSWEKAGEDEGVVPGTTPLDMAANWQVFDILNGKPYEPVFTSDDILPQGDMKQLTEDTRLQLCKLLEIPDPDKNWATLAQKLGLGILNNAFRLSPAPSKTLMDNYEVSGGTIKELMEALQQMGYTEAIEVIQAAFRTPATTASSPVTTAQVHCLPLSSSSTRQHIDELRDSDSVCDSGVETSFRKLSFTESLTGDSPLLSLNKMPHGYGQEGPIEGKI
# These are yes or no findings as the source states them, for the method shown. For some of these results: Binding seen in cells or lysates may run through a third protein. Some entries that bind do so weakly or less than the wild type.
# Key:
# [1] = target: CtBP2, Flag- or Myc-tagged, transfected in MPAEpiC cells (UniProt P56546); experiment: co-IP; combinations of plasmids cotransfected into MPAEpiC cells, 48 h; lysates immunoprecipitated with anti-Flag agarose; blots with anti-Flag and anti-Myc
# GST-p300^BRD = GST-p300^BRD (UniProt B2RWS6); experiment: pull-down; 80 nM GST-p300^BRD and 40 nM His-CtBP2 with PNSC928 (0, 11.8, 23.6, 47.2 µM); pulldown with GST beads; both purified
# His-CtBP2 = His-CtBP2 (UniProt P56546); experiment: pull-down; 80 nM GST-p300^BRD and 40 nM His-CtBP2 with PNSC928 (0, 11.8, 23.6, 47.2 µM); pulldown with Ni-NTA beads; both purified
# [2] = target: C-terminal binding protein 2 (CtBP2), endogenous mouse (mouse (endogenous in C57BL/6 lung and MPAEpiC cells)) (UniProt P56546); experiment: co-IP; nuclear fractions of lung tissue from control and LPS-challenged ARDS mice; anti-CtBP2 antibody, protein A agarose beads, 4 °C; washes with 150 mM NaCl, 1% Triton X-100; Western blot
substance,measurement,setting,value
"p300 region R2 (1001–1201 aa), Flag- or Myc-tagged, transfected in MPAEpiC cells (from UniProt B2RWS6 1001-1201) (domain or fragment)",binding,[1],binds
His-CtBP2 (from UniProt P56546 1-445),binding,GST-p300^BRD,binds
GST-p300^BRD (from UniProt B2RWS6 1001-1201) (domain or fragment),binding,His-CtBP2,binds
"nuclear factor kappa B (NF-κB), subunits p50 and p65, endogenous mouse (from UniProt P25799 1-431; Q04207 1-549) (complex)",binding,[2],binds
